A: 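ClpP1P2, Mycobacterium tuberculosis (UniProt P9WPC5 and UniProt P9WPC3). Protease assay of ClpP1P2, read by the AMC dye that it sets free. Tested at 50 µM. Direction is inferred from only a few compounds that gave an IC50; most scored high, so higher reads as stronger inhibition. Most other retested compounds had strongly negative values. About 69,000 compounds were tested under these conditions; 0.015% (about 10) showed 50% or more at least once.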
B: 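Enzyme assay of the thioesterase domain of polyketide synthase 13; the read-out is not stated. Target: Polyketide synthase Pks13, Mycobacterium tuberculosis (UniProt I6X8D2). Compounds at 30 µM. Higher reads as stronger inhibition (inferred from which compounds were picked for retests). About 67,000 compounds were tested under these conditions; 0.46% (about 300) showed 50% or more at least once.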
C: 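Enzyme assay of tryptophanyl-tRNA synthetase; the read-out is not stated. Target: Tryptophan-tRNA ligase, Mycobacterium tuberculosis (UniProt P9WFT3). Tested at 10 µM. Higher most likely means stronger inhibition; the record gives no direction and few retests gave an IC50. Size under these conditions: about 65,000 compounds, about 64 of them at 50% or above in at least one test.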

Sequences of proteins named here, by UniProt entry; tags and fusion partners are left off.
UniProt P9WPC5, whole entry: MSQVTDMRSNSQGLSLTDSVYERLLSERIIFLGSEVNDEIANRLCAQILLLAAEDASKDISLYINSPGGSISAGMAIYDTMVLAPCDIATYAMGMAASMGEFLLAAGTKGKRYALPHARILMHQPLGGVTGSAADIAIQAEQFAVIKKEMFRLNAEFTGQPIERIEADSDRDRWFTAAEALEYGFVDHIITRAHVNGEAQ
UniProt P9WPC3, whole entry partner: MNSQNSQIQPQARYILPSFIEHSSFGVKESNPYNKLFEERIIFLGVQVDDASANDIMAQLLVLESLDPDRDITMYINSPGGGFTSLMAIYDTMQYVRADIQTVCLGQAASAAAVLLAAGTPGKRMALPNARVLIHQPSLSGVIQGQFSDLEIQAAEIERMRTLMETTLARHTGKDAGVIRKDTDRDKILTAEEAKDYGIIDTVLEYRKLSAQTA
UniProt I6X8D2, whole entry: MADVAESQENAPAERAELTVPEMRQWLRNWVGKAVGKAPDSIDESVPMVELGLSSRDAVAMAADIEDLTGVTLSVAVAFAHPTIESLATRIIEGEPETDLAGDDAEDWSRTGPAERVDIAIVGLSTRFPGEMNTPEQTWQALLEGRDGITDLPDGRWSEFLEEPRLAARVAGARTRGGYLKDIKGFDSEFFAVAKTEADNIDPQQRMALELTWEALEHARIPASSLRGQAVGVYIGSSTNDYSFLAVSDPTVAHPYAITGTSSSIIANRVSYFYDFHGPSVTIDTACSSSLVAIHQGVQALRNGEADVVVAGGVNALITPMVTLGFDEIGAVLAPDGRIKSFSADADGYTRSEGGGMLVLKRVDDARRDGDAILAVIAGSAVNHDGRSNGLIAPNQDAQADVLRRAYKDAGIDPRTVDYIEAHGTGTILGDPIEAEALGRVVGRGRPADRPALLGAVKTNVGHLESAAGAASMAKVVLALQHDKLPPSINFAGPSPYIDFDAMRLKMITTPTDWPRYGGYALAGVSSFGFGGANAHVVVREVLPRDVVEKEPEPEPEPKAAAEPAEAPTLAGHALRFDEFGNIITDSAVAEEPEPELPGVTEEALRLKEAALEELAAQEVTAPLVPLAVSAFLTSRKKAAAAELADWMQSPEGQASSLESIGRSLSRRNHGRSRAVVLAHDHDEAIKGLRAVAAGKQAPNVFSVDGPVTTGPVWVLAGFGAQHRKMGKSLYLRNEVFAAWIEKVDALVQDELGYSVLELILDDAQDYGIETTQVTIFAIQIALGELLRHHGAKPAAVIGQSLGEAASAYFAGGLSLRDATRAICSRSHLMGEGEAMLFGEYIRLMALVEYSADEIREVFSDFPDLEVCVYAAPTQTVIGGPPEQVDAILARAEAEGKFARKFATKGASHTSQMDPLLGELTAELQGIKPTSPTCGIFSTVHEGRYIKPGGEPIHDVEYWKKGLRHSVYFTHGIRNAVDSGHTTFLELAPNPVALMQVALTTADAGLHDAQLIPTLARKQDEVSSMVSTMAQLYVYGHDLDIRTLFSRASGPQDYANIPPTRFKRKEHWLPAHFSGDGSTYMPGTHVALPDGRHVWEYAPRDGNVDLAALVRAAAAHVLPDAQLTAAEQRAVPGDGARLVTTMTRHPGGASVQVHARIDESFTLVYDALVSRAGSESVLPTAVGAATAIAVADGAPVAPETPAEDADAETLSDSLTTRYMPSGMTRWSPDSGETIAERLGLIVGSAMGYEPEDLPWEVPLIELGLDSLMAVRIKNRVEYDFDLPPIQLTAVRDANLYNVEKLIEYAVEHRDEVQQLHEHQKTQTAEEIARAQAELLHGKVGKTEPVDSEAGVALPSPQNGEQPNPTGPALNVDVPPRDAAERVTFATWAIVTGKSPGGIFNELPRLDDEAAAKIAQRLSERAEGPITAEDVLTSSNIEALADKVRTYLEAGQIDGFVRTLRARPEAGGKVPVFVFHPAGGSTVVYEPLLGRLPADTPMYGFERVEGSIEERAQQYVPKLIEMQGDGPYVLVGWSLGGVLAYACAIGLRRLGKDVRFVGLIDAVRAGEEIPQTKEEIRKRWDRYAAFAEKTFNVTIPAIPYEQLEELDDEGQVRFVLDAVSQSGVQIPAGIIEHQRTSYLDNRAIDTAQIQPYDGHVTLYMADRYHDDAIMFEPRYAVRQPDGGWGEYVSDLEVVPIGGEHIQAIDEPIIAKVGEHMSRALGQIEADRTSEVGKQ
UniProt P9WFT3, whole entry: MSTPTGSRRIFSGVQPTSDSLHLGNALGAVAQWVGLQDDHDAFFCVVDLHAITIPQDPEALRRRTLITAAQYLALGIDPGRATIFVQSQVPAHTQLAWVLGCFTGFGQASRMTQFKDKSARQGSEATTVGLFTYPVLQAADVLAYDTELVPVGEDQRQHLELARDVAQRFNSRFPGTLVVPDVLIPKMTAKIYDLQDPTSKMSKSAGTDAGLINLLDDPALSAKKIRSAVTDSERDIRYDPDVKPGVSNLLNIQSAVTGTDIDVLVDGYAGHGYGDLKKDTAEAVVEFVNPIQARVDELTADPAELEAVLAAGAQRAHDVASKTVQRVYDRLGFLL

Results are given as percent effect.
How 0% and 100% were set is not recorded. Most values in the screen are low, and negative values occur.
This is an unselected part of the compounds tested.
A dash means the value is not listed here; it may have been measured.

SMILES,A,B,C
CNC(=O)CS(=O)(=O)Cc1ccc(OC)c(F)c1,-34.18,12.18,-3.311
CSCC[C@H]1CN2CCC[C@H]2CN1Cc1cn(C)nc1C,-7.409,-3.683,-
Cc1ccc2c(c1)C(NCc1ccccn1)CC2 (centres undefined),-9.203,-19.14,0.3812
c1ccc(O[C@H]2CO[C@@]3(CCCN(Cc4nccs4)C3)C2)nc1,20.47,-25.23,15.54
CCCc1nc(C(C)(C)NC(=O)C2CC(=O)N(CC3CC3)C2)no1 (centres undefined),-4.93,-1.08,-6.9
O=C(NC1CC1)C1CCN(c2snc3ccccc23)CC1,13.94,-4.613,15.08
Cc1nn(C)cc1S(=O)(=O)N[C@@H]1CCC[C@@H](n2ccnc2)[C@@H]1O,-10.22,-18.92,-6.836
O=S(=O)(CCN1CCCC1Cn1cncn1)c1ccccc1 (centres undefined),-3.011,-7.242,-1.874
Cc1cc(O)nc(C2CCN(C(=O)CO)CC2)n1,-21.26,-3.27,-2.474
O[C@@H]1C[C@@](CNCc2ccc(F)cc2)(COc2cccnc2)C[C@@H]1O,1.214,14.29,-1.442
Cc1cc(C)c2c(OCC(=O)N(C)CC(=O)NC(C)C)nn(C)c2n1,2.252,-31.06,3.182
Nc1nc(CCCNC(=O)C2CCCN(Cc3ccco3)C2)cs1 (centres undefined),10.51,-26.6,-3.638
CCNc1ncc(C(=O)NCCc2ccc(C)c(C)c2)cn1,-15.75,-9.871,-3.473
Cc1cccc(OCCNC(=O)CN2CCN(C)CC2C)c1 (centres undefined),-12.05,-33.64,4.161
O=C(c1cc(COc2ccc3c(c2)OCO3)[nH]n1)N1CC=CC1CO (centres undefined),-13.52,6.898,-1.562
CCn1cc(S(=O)(=O)NCC(c2ccccc2)N2CCOCC2)c(C)n1 (centres undefined),10.2,-9.247,7.812
CC(=O)N1N=C(c2cccs2)OC1C(=O)Nc1ccc(C(C)C)cc1 (centres undefined),-9.702,17.65,-
CCCN(C(=O)COC)c1nc2c(s1)CCc1c-2cnn1C,2.766,-3.368,4.917
Oc1ccc(N2CCC(Cc3ccccc3)CC2)nn1,-17.07,0.5344,4.49
Cc1nccn1CCN(C)C(=O)C1CCCN(C2CCOCC2)C1 (centres undefined),1.901,-7.074,-0.3221
CC(=O)N1CCN(C[C@H]2CC[C@@H](Cc3ccc4ncccc4c3)O2)CC1,-17.77,32.99,-1.098
Cc1cc(CN(C)C(=O)CN2CC3(CCNCC3)OC2=O)no1,2.764,-24.37,4.231
COc1cccc(CNC(Cc2cccs2)c2nc(C)c(C)s2)c1OC (centres undefined),-5.673,-2.211,-3.536
COc1cc(N2CCc3ncnc(-c4cnn(C)c4)c3CC2)ncn1,-1.177,-20.52,-6.77
Cn1ccnc1CN1CCC(c2nnc(Cn3cccn3)n2C)CC1,-0.6609,11.82,-0.8912
Cn1cc(C(=O)N2CCN(c3ccc(F)cc3)CC2)ccc1=O,0.2934,-11.07,-7.542
COc1cc(F)c(S(=O)(=O)NCc2ccnc(N(C)C)n2)cc1OC,0.8355,-34.48,-4
CCN1CCn2c(C)cnc2C12CCN(C(=O)c1ccco1)CC2,2.694,-8.051,-1.493
COCCC1(C(=O)O)CCCN(C(=O)c2cc(Cl)ccc2F)C1 (centres undefined),-16.62,-29.96,0.4182
OC1(c2cn(C3CCN(C4CCSC4)CC3)nn2)CCCC1 (centres undefined),-19.1,-6.293,0.7874
CCc1ccc(C(=O)O)cc1S(=O)(=O)N(C)c1cccc(C)c1,-10.79,-,-8.922
CCS(=O)(=O)CCNCc1cc(O)c2cc(C)cc(C)c2n1,-12.21,-15.2,2.553
CN1C[C@@H](C(=O)N(C)C)[C@@]2(CCc3ccccc3C(=O)N2)C1,-24.91,3.371,-1.762
c1ccc(N2CC[C@H](OCC3CC3)[C@@H]2Cc2cccnc2)nc1,-17.24,-,-
CN(Cc1ccncc1)CC(c1cccs1)N1CCOCC1 (centres undefined),0.6066,-14.88,4.568
Cc1cnn(C(C)C(=O)NCC2CCN(c3cnn(C)c(=O)c3)CC2)c1 (centres undefined),-10.47,-,-0.404
CCc1noc(C2CCCCN2C(=O)c2cc(C)on2)n1 (centres undefined),0.1732,-14.51,0.9067
O=C1CSc2ccc(C(=O)N3CCCC(n4cccn4)C3)cc2N1 (centres undefined),0.645,-27.27,-2.252
CCOCc1nc2c(c(NC(COC)c3ccccn3)n1)CCNCC2 (centres undefined),-8.656,-13.02,6.471
COc1cccc(-c2nc(C)c(C(=O)N[C@@H](C)C(=O)O)s2)c1,13.66,-19.17,-34.37
Cc1ccc(-c2cc(CN3CCOC(Cn4cncn4)C3)on2)cc1 (centres undefined),-3.026,-3.173,3.888
Cc1nc(CNCC(O)COc2ccc3c(c2)OCO3)cs1 (centres undefined),-1.49,7.421,-5.683
N#Cc1ccccc1CN1CCC(c2nccn2CC(N)=O)CC1,3.18,-5.481,-1.867
O=C(Cn1ccc(=O)c2ccccc21)Nc1cnccc1O,6.19,-15.17,6.328
CN(C)CCNc1cc(-c2ncccc2C(F)(F)F)c2cc[nH]c2n1,4.21,-15.7,0.7498

Some entries from above, unchanged:

Cc1ccc(-c2cc(CN3CCOC(Cn4cncn4)C3)on2)cc1 (centres undefined) gave A: -3.026%; B: -3.173%; C: 3.888%.
CNC(=O)CS(=O)(=O)Cc1ccc(OC)c(F)c1 gave A: -34.18%; B: 12.18%; C: -3.311%.
c1ccc(O[C@H]2CO[C@@]3(CCCN(Cc4nccs4)C3)C2)nc1 gave A: 20.47%; B: -25.23%; C: 15.54%.
CCc1ccc(C(=O)O)cc1S(=O)(=O)N(C)c1cccc(C)c1 gave A: -10.79%; C: -8.922%.
Cc1nc(CNCC(O)COc2ccc3c(c2)OCO3)cs1 (centres undefined) gave A: -1.49%; B: 7.421%; C: -5.683%.

Data taken from ChEMBL document CHEMBL3988442, “University of Dundee, Small-Polar-MMV Screening Library” (2021).